According to PMC11193757:
No constants are given. Whether binding was seen depends on the method and setting. In cells and extracts the contact can be indirect. Some results given as binding are weak or reduced against the parent protein; the word gives no strength.

By UniProt entry, the sequences of proteins in these tests, tags left out.
UniProt O75150: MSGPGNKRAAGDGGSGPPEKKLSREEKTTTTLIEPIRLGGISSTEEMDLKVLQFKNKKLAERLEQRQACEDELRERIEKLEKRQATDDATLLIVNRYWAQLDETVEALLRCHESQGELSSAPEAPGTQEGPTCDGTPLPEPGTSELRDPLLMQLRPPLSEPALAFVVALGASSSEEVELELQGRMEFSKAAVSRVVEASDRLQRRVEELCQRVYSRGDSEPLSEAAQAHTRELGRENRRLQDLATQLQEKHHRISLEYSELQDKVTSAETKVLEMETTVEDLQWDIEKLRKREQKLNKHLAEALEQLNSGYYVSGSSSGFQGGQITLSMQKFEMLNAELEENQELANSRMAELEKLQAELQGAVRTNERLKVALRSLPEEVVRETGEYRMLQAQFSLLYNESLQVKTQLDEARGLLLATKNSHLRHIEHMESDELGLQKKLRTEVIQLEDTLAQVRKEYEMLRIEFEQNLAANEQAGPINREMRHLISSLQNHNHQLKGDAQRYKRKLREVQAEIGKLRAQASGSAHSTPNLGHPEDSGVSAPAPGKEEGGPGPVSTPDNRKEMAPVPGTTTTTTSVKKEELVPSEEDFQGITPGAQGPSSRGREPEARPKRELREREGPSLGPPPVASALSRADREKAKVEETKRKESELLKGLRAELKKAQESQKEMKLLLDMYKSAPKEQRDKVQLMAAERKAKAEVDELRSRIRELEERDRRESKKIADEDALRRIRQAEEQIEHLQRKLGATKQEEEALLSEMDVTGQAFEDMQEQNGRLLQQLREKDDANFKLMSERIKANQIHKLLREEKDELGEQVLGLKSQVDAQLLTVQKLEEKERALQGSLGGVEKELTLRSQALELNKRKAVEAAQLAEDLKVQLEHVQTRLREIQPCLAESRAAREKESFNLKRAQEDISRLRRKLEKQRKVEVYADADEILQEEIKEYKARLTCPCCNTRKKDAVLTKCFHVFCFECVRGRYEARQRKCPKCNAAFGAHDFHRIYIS
UniProt Q9UHB6: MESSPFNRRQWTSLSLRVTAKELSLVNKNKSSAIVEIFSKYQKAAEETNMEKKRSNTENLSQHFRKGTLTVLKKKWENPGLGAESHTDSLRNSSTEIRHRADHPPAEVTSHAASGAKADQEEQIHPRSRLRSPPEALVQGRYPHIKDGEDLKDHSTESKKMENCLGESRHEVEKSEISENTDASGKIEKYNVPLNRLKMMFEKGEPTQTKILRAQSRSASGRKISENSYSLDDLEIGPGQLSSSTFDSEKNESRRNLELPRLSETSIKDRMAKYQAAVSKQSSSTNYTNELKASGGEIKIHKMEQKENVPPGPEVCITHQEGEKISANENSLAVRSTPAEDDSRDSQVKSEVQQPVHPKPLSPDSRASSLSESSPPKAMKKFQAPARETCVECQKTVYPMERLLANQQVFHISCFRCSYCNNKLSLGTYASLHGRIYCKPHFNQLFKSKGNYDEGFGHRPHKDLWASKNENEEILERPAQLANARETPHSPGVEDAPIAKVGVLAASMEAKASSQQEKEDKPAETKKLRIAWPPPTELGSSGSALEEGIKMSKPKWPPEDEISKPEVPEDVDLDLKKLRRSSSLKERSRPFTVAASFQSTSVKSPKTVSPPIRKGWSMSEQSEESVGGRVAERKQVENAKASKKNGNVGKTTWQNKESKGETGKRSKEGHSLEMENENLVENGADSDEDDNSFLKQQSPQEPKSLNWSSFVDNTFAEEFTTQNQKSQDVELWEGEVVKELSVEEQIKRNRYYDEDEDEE

Biological target: endogenous RNF40 (human (endogenous in Hep3B)) (UniProt O75150)
Experiment: co-IP; endogenous proteins in Hep3B cells; immunoprecipitation with an antibody against RNF40, LIMA1 detected by immunoblotting

“endogenous LIMA1 (from UniProt Q9UHB6 1-759)” was tested, and the binding was “binds”.
